Reference: the supplement of paper PMC10849652
The other results are listed elsewhere or left out.

By UniProt entry, the sequences of proteins in these tests, tags left out. Where a name states a change or a piece, a line headed by the entry shows the natural chain unless it says otherwise.
UniProt O43813, whole entry, looked up: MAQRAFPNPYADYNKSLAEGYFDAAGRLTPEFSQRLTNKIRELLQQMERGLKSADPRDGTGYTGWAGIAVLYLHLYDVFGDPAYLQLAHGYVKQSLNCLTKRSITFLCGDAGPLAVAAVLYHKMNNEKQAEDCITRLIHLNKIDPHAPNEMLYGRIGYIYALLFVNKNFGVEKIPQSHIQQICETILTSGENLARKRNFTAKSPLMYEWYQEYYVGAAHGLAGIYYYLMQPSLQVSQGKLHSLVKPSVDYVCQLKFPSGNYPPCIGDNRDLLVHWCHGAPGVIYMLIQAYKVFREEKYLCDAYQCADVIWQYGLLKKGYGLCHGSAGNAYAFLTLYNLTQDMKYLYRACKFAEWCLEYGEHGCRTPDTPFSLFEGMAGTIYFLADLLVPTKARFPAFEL
UniProt Q8N9N7: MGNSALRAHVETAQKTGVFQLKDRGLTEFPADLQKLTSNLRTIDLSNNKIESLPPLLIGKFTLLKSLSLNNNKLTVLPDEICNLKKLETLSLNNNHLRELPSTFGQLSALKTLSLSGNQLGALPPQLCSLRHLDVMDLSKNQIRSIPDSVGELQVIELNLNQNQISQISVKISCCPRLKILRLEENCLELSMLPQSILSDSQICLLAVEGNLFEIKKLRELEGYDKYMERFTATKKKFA
UniProt P48059, whole entry, looked up: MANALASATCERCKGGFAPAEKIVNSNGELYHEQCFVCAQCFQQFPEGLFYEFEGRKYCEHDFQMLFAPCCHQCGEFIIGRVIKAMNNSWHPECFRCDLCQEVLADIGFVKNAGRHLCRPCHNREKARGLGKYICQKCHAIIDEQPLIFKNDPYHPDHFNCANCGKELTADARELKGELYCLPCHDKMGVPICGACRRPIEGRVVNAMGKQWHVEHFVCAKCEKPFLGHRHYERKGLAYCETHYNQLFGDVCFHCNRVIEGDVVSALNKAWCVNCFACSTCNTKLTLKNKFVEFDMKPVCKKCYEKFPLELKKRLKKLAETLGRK
UniProt Q15031: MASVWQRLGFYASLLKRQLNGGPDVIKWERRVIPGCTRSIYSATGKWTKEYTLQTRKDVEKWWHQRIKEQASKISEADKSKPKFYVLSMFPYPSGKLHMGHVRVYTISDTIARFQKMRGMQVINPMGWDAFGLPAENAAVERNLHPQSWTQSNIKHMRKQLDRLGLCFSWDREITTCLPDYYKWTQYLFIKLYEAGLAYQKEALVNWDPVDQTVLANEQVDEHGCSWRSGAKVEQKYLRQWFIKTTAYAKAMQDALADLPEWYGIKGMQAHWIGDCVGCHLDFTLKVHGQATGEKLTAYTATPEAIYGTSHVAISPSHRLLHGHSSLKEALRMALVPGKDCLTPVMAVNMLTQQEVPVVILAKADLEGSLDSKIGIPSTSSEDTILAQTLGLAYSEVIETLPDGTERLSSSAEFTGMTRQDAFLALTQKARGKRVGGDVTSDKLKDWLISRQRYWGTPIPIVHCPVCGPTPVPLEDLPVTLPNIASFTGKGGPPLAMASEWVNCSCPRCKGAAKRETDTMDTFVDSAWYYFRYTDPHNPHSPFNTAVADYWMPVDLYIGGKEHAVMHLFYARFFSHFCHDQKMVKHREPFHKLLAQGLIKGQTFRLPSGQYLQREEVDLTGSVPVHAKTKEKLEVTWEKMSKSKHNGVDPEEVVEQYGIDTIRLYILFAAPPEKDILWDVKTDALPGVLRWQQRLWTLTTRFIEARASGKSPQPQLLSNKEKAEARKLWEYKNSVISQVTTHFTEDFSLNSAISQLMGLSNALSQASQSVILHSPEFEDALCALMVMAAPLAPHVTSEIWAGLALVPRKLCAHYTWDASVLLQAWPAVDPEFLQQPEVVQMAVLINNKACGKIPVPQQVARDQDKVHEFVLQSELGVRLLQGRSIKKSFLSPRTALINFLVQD
UniProt Q9UIC8: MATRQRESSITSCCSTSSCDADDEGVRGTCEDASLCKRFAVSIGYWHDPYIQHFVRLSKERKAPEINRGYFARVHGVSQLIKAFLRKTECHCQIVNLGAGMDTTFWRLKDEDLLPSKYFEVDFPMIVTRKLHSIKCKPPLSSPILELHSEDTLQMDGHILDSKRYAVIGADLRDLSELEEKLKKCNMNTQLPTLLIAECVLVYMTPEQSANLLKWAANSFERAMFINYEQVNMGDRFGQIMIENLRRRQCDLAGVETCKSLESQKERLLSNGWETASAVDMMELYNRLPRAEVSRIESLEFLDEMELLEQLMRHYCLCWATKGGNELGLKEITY
UniProt Q86U70: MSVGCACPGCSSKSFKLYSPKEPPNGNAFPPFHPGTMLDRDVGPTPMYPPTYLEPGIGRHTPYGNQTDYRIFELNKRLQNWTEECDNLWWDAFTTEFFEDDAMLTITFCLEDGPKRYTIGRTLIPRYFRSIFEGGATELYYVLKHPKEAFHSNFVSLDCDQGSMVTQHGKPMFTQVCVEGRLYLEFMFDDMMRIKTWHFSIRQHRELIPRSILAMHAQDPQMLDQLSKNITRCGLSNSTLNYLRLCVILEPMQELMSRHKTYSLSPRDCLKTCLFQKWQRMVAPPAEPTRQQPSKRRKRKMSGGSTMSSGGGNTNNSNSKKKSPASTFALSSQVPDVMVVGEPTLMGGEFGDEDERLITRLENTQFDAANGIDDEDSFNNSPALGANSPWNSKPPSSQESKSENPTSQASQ
UniProt P18858, whole entry, looked up: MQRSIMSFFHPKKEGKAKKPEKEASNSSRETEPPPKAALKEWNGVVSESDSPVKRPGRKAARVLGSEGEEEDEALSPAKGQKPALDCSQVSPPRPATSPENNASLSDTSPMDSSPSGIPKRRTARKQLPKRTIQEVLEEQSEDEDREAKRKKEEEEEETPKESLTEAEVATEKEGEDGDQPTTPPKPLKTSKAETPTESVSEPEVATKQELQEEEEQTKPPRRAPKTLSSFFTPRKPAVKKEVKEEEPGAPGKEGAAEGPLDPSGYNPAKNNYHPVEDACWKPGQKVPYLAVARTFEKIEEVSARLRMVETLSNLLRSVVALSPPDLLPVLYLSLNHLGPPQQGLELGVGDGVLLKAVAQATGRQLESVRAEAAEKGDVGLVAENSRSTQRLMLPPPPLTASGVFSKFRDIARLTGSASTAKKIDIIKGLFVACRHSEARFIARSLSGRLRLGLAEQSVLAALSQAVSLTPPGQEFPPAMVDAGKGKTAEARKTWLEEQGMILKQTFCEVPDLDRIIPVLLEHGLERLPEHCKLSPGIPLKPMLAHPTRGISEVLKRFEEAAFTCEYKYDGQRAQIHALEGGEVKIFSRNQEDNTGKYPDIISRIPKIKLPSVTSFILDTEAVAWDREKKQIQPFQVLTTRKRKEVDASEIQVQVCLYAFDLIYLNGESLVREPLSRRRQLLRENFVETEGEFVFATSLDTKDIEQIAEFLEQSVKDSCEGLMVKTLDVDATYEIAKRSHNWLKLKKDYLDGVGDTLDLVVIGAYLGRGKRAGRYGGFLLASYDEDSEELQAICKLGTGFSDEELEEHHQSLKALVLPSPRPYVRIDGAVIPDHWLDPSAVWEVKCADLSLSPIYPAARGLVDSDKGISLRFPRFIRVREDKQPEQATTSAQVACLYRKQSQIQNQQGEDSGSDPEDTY
UniProt Q9H0V9: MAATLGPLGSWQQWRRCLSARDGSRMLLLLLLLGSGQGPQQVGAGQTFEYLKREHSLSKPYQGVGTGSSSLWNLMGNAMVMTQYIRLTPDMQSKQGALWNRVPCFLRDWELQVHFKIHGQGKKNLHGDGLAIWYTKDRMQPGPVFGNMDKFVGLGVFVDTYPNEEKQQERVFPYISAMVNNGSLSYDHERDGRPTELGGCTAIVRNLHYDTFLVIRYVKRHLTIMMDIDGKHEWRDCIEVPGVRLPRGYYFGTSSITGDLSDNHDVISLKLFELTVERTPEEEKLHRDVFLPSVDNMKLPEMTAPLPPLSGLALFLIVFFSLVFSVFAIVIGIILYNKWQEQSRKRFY
UniProt Q9Y2Q5, whole entry, looked up: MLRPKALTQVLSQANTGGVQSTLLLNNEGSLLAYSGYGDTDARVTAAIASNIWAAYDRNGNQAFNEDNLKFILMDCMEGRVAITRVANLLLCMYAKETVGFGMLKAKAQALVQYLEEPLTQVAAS
UniProt P36776: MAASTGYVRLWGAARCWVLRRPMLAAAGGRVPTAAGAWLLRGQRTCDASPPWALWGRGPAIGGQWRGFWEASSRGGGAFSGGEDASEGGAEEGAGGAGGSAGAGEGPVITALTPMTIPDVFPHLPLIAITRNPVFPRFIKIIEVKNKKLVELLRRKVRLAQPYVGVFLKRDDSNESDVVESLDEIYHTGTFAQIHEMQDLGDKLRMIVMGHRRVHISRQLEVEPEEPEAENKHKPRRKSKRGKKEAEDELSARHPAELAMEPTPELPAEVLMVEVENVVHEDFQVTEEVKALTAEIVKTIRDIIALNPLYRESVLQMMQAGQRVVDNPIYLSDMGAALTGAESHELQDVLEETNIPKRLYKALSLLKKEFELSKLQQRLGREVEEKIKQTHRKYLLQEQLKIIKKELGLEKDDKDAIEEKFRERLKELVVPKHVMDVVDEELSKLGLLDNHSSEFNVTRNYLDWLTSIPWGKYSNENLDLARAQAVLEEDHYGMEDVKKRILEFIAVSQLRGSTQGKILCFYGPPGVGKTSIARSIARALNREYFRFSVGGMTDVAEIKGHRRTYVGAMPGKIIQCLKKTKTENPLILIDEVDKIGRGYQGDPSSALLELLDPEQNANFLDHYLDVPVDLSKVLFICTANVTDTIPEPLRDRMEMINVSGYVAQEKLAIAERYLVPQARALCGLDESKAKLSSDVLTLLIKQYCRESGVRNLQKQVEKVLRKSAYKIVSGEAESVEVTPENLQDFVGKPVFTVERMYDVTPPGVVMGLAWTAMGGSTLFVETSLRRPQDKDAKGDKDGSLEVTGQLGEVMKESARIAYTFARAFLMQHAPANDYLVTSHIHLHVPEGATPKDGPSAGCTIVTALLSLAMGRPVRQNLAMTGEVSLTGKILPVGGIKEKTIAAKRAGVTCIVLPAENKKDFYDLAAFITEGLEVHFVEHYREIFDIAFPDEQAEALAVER
UniProt Q12907: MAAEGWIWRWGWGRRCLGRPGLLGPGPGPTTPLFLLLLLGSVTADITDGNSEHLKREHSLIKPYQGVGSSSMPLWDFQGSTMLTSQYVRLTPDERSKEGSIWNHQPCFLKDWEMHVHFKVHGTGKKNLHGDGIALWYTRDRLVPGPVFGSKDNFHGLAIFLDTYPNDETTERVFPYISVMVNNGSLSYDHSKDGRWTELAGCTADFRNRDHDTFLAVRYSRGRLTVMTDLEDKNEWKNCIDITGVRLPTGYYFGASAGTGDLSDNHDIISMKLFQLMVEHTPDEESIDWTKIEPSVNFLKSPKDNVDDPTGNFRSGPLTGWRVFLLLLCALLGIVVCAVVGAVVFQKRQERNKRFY
UniProt P13796: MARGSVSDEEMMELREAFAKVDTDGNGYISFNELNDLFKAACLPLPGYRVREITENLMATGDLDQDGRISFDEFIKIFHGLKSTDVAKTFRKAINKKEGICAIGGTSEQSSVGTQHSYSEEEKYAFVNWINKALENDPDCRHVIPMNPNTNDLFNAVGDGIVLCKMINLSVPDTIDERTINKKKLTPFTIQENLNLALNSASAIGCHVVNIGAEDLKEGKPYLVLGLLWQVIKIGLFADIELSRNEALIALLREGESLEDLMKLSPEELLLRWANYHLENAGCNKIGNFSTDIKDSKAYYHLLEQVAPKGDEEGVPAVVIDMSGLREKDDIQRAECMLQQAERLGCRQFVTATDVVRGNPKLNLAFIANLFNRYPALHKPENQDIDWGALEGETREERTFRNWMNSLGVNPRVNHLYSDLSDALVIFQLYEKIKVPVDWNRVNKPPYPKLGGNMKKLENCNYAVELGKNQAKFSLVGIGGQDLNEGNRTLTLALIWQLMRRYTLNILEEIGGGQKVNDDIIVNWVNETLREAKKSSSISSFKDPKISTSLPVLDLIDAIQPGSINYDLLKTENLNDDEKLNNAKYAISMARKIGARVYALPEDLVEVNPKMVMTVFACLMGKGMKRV
UniProt P53671: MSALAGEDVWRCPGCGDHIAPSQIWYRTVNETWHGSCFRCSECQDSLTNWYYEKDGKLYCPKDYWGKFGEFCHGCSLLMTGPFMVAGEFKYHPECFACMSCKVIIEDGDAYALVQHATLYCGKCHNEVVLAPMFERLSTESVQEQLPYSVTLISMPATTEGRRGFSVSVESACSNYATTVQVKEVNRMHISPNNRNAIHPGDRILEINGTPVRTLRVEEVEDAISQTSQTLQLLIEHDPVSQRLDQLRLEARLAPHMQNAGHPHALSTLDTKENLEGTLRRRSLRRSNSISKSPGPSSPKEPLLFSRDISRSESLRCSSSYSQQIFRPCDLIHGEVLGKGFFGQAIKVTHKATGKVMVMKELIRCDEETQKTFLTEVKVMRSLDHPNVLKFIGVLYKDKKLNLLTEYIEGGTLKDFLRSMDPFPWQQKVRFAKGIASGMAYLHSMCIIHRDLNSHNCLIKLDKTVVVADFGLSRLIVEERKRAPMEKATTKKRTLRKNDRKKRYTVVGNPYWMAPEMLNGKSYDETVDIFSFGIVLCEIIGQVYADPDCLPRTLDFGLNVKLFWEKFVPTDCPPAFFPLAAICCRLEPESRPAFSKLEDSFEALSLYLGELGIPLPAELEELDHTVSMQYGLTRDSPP

compound: CC[C@H](C)[C@@H](C(=O)N[C@@H]([C@@H](C)O)C(=O)N[C@@H](CC(C)C)C(=O)[C@]1(CO1)C)NC(=O)[C@H]([C@@H](C)CC)N(C)C(=O)C [epoxomicin]; assay: log2 fold change, soluble protein after heating vs DMSO (PISA); higher = thermal stabilisation; K562 cells, 10 uM, 30 min; active = over 0.2 and 3.5 SD of the protein, either way, in both replicates (recomputed)
How it was run: (§1)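 Values are thermal stability changes relative to control samples and are taken from duplicates. They are stated as log2 fold changes. Before quantification by TMTpro 16plex LC-MS/MS with equalised channel sums, K562 cells at 2×10^6 cells/mL were treated with 10 μM compound for 30 min, heated in aliquots for 3 min across 48°C-58°C, pooled, extracted in PBS with 0.5% NP-40 at 4°C, and centrifuged at 21,000xg for 90 min to give the soluble supernatant.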

log2 fold change, inactive:
LARS (UniProt Q9P2J5) -0.165, KYAT3 (UniProt Q6YP21) -0.03, LAMTOR1 (UniProt Q6IAA8) 0.115, LHPP (UniProt Q9H008) 0.029, LAP3 (UniProt P28838) 0.005, LANCL1 (UniProt O43813) 0.038, LASP1 (UniProt Q14847) 0.007, LRRC47 (UniProt Q8N1G4) 0.025, L3HYPDH (UniProt Q96EM0) 0.042, LRRC57 (UniProt Q8N9N7) -0.008, LIMS1 isoform 3 (UniProt P48059) 0.038, LARS2 (UniProt Q15031) 0.033, LLPH (UniProt Q9BRT6) -0.371, LACTB2 (UniProt Q53H82) 0.019, LCMT1 (UniProt Q9UIC8) 0.001, LDB1 (UniProt Q86U70) -0.013, LENG1 (UniProt Q96BZ8) 0.006, LIG1 (UniProt P18858) 0.092, LETM1 (UniProt O95202) 0.044, LDHB (UniProt P07195) -0.007, LMAN2L isoform 2 (UniProt Q9H0V9) 0.01, LPCAT1 (UniProt Q8NF37) -0.031, LRRC20 (UniProt Q8TCA0) 0.023, LCLAT1 (UniProt Q6UWP7) 0.048, LAMTOR2 (UniProt Q9Y2Q5) 0.09, LONP1 (UniProt P36776) 0.003, LIN28B (UniProt Q6ZN17) -0.139, LMAN2 (UniProt Q12907) 0.016, LANCL2 (UniProt Q9NS86) 0.02, LCP1 (UniProt P13796) -0.007, LIMK2 isoform 3 (UniProt P53671) 0.007, LRRC40 (UniProt Q9H9A6) -0.002

compound: CCn1c(C(=O)N(C2CC2)C2CC2)cc2c3c(ncn3C)c(Nc3cc(C)n(C)n3)nc21; assay: as above
How it was run: as §1

log2 fold change, inactive:
LARS (UniProt Q9P2J5) -0.042, KYAT3 (UniProt Q6YP21) 0.014, LAMTOR1 (UniProt Q6IAA8) 0.057, LHPP (UniProt Q9H008) -0.005, LAP3 (UniProt P28838) -0.016, LANCL1 (UniProt O43813) -0.018, LASP1 (UniProt Q14847) 0.037, LRRC47 (UniProt Q8N1G4) -0.004, L3HYPDH (UniProt Q96EM0) -0.002, LRRC57 (UniProt Q8N9N7) -0.015, LIMS1 isoform 3 (UniProt P48059) 0.02, LARS2 (UniProt Q15031) 0.009, LLPH (UniProt Q9BRT6) -0.021, LACTB2 (UniProt Q53H82) 0.007, LCMT1 (UniProt Q9UIC8) 0.003, LDB1 (UniProt Q86U70) -0.019, LENG1 (UniProt Q96BZ8) -0.014, LIG1 (UniProt P18858) -0.041, LETM1 (UniProt O95202) 0.035, LDHB (UniProt P07195) 0.033, LMAN2L isoform 2 (UniProt Q9H0V9) 0.011, LPCAT1 (UniProt Q8NF37) 0.005, LRRC20 (UniProt Q8TCA0) 0.063, LCLAT1 (UniProt Q6UWP7) -0.046, LAMTOR2 (UniProt Q9Y2Q5) 0.044, LONP1 (UniProt P36776) 0.005, LIN28B (UniProt Q6ZN17) -0.074, LMAN2 (UniProt Q12907) 0.007, LANCL2 (UniProt Q9NS86) -0.01, LCP1 (UniProt P13796) 0.032, LIMK2 isoform 3 (UniProt P53671) -0.011, LRRC40 (UniProt Q9H9A6) -0.055

compound: CCn1cc(-c2ccnc3[nH]c(-c4cccc(CN(C)C)c4)cc23)c(-c2ccc(NC(=O)N(C)C)cc2)n1; assay: as above
How it was run: as §1

log2 fold change, inactive:
LARS (UniProt Q9P2J5) 0.079, KYAT3 (UniProt Q6YP21) 0.001, LAMTOR1 (UniProt Q6IAA8) -0.04, LHPP (UniProt Q9H008) -0.041, LAP3 (UniProt P28838) -0.029, LANCL1 (UniProt O43813) -0.013, LASP1 (UniProt Q14847) 0.025, LRRC47 (UniProt Q8N1G4) -0.068, L3HYPDH (UniProt Q96EM0) -0.118, LRRC57 (UniProt Q8N9N7) -0.064, LIMS1 isoform 3 (UniProt P48059) -0.028, LARS2 (UniProt Q15031) -0.059, LLPH (UniProt Q9BRT6) 0.424, LACTB2 (UniProt Q53H82) -0.01, LCMT1 (UniProt Q9UIC8) -0.106, LDB1 (UniProt Q86U70) -0.031, LENG1 (UniProt Q96BZ8) 0.041, LIG1 (UniProt P18858) -0.145, LETM1 (UniProt O95202) -0.041, LDHB (UniProt P07195) -0.019, LMAN2L isoform 2 (UniProt Q9H0V9) -0.154, LPCAT1 (UniProt Q8NF37) -0.018, LRRC20 (UniProt Q8TCA0) 0.026, LCLAT1 (UniProt Q6UWP7) -0.047, LAMTOR2 (UniProt Q9Y2Q5) 0.021, LONP1 (UniProt P36776) -0.011, LIN28B (UniProt Q6ZN17) 0.046, LMAN2 (UniProt Q12907) -0.025, LANCL2 (UniProt Q9NS86) 0.009, LCP1 (UniProt P13796) -0.007, LIMK2 isoform 3 (UniProt P53671) 0.062, LRRC40 (UniProt Q9H9A6) -0.087
